From patent US20120100206A1, “TARGETED LIPOSOMES COMPRISING N-CONTAINING BISPHOSPHONATES AND USES THEREOF” (Yissum Research Development Company of the Hebrew …, priority 2009, published 2012) come the findings set out here.

As a reminder, the IC50 is the point on the concentration scale where inhibition reaches its midpoint. A high value points to weaker potency in that assay.

For experiment [1], the system named is IGROV-1HiFR (human ovarian carcinoma with high expression of folate-receptor) cells. In words: Cytotoxicity, 72 hr continuous exposure, 96-multiwell growth assay. Particulars: without folate targeting. In kind it is cell-based. Here is the method: (§1) Cytotoxicity was assayed using varying concentrations of drug (0.1-200 μM) under standard 72 hr, continuous exposure, in 96-multiwell assays. Growth rate was assessed colorimetrically based on methylene blue staining or using the Promega MTS kit, and data was be obtained with an automatic plate reader and IC50 values were determined.

The test system of experiment [2] is KB-HiFR (human head-and-neck carcinoma with high expression of folate-receptor) cells. Described as above. The class given is cell-based. The settings on record: without folate targeting. On the procedure:
as §1

Each structure is given as a SMILES string.

Consider `NCCCC(O)(P(=O)(O)O)P(=O)(O)O` [Free Alendroante, 4-amino-1-hydroxybutylidene-1,1-bisphosphonic acid], for which the figures for the IC50 in experiment [1] and in experiment [2] were 26.5 µM and 157 µM, respectively.
